Experimental findings from US10669306B2 (UNIVERSITY OF WASHINGTON, priority 2016, dated 2020) are described below.

Data set [1] can be described thus: general procedure: Fmoc solid-phase peptide synthesis; Rink-amide resin (0.30-60 mmol/g substitution), CHEM-IMPEX, with MEGA linker. To be noted: whole synthesis, overall isolated.
Data set [2] in a line: general procedure: Fmoc solid-phase peptide synthesis; Rink amide resin. To be noted: whole synthesis, scale 0.05 mmol.

On to CASHEW-MEGA, for which the isolated yield in data set [1] stood at 56%. For CFPDGRCTKSIPPG-MEGA, in data set [2], the isolated mass was determined as 15.4 mg and the isolated yield is given as 20%.
